Here are results for two molecules from patent publication US20230139700A1.

By UniProt entry, the sequences of proteins in these tests, tags left out. Residues count along the entry.
UniProt P43489, residues 29-277: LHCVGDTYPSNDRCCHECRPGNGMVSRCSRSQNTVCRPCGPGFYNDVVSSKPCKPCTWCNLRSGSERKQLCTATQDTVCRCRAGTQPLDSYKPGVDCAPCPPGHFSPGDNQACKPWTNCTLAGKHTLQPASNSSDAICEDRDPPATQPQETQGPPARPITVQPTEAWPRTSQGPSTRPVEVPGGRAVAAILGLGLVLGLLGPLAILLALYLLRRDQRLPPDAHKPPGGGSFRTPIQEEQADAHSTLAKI

The test concerns the target human OX40 on cells (human) (UniProt P43489). Nature of the test: flow cytometry on Jurkat-hOX40 cells, 100 nM antibody, secondary antibody; parental Jurkat as control. (Flow cytometry measures light scatter and fluorescence of single cells or particles in a stream.)

No constants are given. Whether binding was seen depends on the method and setting. Some entries that bind do so weakly or less than the wild type.

B1: Antibody-X35-6L (antibody, human IgG1, kappa, V domains shown)
VH: EVQLVESGGGLVQPGRSLRLSCAASGFTFDDYAMHWVRQAPGRGLEWVSGIGGSGGSTYYADSVKGRFTISRDNSKNTLYLQMNGLGAEDTAVYYCAKDRGYGDYYWYFDLWGRGTLVTVSS
VL: SSELTQPASVSGSPGQSITISCTGTSSDVGGYNYVSWYQQHPGKAPKLMIYDVSNRPSGVSNRFSGSKSGNTASLTISGLQAEDEADYYCSSYTTSSTLVFGGGTKVTVLR
On to B1, for which the binding result is reported as “binds”.

B2: Antibody-F15-1L (antibody, human IgG1, kappa, V domains shown)
VH: QVQLRESGGGLVQPGGSLRLSCAASGFTFSSYAMNWVRQAPGKGLEWVSAISGSGGNTYYADSVKGRLTISRDNSKNTLYLQMNSLRAEDTAVYYCAKDPLGSSWFEYFQHWGQGTLVTVSS
VL: QSALTQPASVSGSPGQSITISCTGTSSDVGGYNYVSWYQKHPGKAPKLMIYEVSNRPSGVSNRFSGSKSANTASLTISGLQAEDEADYFCSSYSSSSTLVVFGGGTKLTVLR
Take B2: the binding result is listed as “binds”.
